Reference: the supplement of paper PMC12067093, “Discovery and optimisation of a covalent ligand for TRIM25 and its application to targeted protein ubiquitination” (Chemical Science, 2025)
This is one part of the list.

Chains of the proteins cited; added tags and fusions are not shown. Lines headed by an entry give the natural chain unless they say otherwise; changes in a name come on top.
UniProt P15170, whole entry, looked up: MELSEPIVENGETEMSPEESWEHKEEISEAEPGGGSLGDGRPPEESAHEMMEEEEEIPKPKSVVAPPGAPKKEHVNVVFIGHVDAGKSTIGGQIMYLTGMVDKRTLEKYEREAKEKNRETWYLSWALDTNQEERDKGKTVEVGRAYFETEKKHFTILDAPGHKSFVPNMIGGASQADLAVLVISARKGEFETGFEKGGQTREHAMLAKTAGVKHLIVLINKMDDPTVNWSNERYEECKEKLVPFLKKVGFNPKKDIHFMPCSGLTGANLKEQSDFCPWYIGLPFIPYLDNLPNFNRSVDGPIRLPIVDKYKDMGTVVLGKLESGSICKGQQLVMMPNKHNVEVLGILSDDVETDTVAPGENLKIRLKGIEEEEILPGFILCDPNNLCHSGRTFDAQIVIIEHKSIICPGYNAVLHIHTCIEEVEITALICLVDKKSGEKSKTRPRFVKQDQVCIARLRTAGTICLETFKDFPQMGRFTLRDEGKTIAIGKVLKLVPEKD
UniProt Q9UKN8: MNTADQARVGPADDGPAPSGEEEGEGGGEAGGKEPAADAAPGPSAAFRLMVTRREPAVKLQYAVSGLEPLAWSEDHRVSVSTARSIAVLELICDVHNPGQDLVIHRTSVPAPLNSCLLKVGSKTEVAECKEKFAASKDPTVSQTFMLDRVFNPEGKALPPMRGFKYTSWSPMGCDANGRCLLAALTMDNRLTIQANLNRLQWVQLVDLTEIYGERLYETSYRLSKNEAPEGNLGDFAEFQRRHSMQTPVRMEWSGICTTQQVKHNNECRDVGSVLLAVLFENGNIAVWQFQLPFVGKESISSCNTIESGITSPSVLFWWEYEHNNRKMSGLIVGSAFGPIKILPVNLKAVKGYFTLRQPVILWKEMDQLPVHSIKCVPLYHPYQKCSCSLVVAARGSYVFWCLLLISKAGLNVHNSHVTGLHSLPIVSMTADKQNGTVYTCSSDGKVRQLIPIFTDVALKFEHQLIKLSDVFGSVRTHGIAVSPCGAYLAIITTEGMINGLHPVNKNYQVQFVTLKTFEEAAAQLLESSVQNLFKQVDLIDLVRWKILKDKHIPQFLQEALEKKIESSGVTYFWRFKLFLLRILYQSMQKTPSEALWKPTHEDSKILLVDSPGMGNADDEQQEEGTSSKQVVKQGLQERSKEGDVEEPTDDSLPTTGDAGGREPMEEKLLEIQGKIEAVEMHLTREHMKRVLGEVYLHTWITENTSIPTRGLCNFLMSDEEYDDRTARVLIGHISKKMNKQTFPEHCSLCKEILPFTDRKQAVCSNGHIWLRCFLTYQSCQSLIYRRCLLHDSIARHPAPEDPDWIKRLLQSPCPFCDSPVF
UniProt Q9Y5Q8: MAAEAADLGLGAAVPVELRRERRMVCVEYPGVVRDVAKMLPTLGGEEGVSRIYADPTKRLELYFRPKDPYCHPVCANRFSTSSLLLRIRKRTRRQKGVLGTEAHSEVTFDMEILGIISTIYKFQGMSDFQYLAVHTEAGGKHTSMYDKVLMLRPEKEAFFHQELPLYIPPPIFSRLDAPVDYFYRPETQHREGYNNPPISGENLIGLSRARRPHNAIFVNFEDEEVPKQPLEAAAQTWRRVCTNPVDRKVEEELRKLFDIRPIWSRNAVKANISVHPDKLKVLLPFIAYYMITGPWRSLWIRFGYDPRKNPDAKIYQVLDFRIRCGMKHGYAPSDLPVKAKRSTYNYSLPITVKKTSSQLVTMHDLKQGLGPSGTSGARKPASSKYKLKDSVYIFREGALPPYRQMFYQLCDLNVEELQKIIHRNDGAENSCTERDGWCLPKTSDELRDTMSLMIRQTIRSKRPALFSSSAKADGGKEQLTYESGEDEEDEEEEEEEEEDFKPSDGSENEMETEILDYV
UniProt P40939: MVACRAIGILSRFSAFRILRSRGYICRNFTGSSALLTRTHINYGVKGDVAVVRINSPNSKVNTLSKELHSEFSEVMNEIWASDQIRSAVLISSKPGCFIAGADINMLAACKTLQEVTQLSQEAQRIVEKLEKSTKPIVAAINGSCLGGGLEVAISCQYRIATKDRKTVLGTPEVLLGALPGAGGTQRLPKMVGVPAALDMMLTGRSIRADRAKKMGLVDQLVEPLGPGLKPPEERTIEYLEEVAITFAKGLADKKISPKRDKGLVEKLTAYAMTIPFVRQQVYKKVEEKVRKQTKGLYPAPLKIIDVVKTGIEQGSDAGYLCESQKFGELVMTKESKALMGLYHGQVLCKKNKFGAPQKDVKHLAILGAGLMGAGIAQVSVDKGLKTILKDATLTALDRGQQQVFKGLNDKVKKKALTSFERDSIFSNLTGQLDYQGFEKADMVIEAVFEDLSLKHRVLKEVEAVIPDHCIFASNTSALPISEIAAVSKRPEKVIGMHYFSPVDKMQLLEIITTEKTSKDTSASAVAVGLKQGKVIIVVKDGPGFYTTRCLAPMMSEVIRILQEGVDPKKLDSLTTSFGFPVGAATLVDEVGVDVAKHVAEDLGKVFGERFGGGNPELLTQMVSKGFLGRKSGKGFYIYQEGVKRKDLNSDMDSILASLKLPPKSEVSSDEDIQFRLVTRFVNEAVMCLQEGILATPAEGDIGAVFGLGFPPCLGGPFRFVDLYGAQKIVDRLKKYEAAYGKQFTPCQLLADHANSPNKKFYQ
UniProt Q16836: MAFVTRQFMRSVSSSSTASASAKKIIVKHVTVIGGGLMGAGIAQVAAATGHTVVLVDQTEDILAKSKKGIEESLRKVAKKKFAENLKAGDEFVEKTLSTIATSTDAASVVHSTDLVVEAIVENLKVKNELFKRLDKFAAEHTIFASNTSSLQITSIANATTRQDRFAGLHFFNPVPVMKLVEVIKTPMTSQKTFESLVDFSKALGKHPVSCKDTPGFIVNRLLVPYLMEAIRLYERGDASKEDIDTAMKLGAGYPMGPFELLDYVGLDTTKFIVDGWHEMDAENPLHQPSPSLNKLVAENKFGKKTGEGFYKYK
UniProt Q9P0R6: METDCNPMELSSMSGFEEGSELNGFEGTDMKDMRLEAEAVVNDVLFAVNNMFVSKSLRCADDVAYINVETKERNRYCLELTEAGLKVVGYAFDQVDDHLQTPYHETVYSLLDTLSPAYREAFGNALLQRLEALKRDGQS
UniProt Q9BQ67, whole entry, looked up: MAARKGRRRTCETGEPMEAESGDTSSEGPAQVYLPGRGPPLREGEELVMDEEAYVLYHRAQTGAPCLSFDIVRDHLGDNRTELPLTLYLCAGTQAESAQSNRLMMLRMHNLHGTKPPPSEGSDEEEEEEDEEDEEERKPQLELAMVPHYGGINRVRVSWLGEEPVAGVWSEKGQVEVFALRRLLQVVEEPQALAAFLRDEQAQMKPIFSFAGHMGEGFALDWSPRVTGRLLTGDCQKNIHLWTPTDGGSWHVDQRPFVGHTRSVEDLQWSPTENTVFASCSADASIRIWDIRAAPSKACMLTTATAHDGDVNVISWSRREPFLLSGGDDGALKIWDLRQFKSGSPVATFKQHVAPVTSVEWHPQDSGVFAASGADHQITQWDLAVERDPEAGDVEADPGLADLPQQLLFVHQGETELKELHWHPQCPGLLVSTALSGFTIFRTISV
UniProt Q7Z4H7: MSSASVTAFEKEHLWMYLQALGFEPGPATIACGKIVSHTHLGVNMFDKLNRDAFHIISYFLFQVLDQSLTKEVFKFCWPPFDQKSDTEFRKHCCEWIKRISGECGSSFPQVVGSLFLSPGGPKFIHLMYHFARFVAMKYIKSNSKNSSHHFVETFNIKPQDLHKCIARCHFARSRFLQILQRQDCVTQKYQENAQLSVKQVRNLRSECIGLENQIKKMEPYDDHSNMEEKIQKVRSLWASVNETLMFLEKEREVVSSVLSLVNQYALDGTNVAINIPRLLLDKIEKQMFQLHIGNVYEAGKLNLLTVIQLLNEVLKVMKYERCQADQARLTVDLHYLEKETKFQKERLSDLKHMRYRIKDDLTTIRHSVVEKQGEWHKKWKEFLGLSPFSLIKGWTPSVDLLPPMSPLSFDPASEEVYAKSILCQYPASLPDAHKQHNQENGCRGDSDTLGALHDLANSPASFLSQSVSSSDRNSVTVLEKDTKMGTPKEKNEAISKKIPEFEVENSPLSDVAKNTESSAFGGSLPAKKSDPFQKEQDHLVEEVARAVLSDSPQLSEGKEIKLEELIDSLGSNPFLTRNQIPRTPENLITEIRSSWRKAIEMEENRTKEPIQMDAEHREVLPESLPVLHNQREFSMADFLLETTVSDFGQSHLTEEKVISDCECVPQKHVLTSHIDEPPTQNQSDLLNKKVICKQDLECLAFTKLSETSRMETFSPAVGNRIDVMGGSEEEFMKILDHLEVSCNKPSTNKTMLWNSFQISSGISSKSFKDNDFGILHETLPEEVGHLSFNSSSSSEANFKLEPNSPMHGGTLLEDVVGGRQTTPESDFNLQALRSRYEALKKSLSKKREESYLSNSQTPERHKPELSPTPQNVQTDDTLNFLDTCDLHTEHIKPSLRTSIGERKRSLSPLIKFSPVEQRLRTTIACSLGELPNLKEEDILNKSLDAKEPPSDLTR
UniProt Q12789: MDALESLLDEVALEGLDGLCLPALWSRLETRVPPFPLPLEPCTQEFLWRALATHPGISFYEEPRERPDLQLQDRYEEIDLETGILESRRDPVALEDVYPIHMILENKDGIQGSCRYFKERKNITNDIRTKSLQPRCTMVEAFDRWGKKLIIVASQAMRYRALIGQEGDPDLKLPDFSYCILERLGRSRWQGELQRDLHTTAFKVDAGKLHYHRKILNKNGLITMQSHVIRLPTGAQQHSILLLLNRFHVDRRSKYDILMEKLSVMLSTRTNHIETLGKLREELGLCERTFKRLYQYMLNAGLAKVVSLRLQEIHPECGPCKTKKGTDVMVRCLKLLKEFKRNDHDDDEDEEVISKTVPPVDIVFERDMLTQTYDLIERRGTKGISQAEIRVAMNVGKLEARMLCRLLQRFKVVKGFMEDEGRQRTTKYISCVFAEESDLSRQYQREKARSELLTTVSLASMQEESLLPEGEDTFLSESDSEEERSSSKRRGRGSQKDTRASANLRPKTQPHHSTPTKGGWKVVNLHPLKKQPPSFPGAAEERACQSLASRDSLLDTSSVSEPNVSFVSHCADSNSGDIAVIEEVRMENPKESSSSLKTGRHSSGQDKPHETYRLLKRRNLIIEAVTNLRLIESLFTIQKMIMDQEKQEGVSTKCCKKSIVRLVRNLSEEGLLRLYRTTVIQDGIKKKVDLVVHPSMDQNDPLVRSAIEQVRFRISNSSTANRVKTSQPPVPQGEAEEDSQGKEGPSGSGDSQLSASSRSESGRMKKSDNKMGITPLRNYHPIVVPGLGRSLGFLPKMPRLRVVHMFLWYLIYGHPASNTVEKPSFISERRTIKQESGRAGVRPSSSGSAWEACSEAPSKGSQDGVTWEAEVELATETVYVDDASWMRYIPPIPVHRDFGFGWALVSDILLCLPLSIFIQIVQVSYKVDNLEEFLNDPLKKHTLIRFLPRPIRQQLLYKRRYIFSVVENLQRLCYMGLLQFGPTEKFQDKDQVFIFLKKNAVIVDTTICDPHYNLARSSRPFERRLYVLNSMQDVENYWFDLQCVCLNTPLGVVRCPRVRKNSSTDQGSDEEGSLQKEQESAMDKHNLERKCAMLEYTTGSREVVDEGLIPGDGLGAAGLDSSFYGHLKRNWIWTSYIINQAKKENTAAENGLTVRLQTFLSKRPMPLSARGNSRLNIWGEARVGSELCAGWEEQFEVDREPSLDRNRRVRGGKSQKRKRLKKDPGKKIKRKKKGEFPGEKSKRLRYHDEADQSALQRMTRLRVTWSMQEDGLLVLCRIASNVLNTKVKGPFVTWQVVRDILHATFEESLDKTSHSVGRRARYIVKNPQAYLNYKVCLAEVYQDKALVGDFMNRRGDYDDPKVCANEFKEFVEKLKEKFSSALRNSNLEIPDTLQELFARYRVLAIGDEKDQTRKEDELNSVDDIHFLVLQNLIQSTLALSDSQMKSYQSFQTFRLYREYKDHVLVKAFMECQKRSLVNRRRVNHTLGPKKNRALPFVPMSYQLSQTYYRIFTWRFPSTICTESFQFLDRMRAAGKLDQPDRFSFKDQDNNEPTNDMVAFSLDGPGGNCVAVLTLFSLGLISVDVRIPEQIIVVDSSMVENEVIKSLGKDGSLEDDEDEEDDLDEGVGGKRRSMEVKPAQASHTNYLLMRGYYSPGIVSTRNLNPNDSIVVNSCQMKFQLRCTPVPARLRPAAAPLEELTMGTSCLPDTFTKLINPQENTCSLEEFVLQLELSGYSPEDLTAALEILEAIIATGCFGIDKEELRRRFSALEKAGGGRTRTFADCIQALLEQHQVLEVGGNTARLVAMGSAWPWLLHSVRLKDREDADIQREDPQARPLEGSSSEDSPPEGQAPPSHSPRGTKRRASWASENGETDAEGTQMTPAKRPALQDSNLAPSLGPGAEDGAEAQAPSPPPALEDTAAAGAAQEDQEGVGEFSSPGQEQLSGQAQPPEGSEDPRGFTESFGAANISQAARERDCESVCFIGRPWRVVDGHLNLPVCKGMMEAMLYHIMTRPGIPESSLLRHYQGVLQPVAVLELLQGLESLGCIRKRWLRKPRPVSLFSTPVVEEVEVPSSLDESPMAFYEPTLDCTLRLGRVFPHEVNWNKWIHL

Compound: Cc1cc(ccc1-c1ccccc1)C(=O)N1CCCN(CC1)C(=O)CCl [compound 10]
Assay: probe-labelled cysteine peptide fold change vs DMSO (competition) (log2 fold change); higher = less target engagement (more negative = stronger competition)
Conditions: THP-1, incubation time: 4 h
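Further: competitive profiling in live THP-1 cells: cysteine peptides tagged with an iodoacetamide desthiobiotin (IA-DTB) probe, intensity after compound treatment relative to DMSO-treated cells.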

Target	probe-labelled cysteine peptide fold change (10 µM)	probe-labelled cysteine peptide fold change (50 µM)
GSPT1_P15170_387_GIEEEEILPGFILCDPNNLCHSGR (UniProt P15170)	-0.00174	0.15
GTF3C4_Q9UKN8_268_HNNECR (UniProt Q9UKN8)	-0.084	0.313
GTF3C5_Q9Y5Q8_75_DPYCHPVCANR (UniProt Q9Y5Q8)	0.121	0.621
HCCS_P53701_178_WEALHAAECPCGPSLIR (UniProt P53701)	0.092	-0.0387
HADHA_P40939_747_QFTPCQLLADHANSPNKK (UniProt P40939)	-0.211	-0.236
GTF2I_P78347_215_SILSPGGSCGPIK (UniProt P78347)	-0.216	-0.252
HADH_Q16836_211_HPVSCK (UniProt Q16836)	-0.0183	0.126
GSKIP_Q9P0R6_59_CADDVAYINVETK (UniProt Q9P0R6)	0.169	0.0933
GTF3C5_Q9Y5Q8_242_RVCTNPVDR (UniProt Q9Y5Q8)	0.0456	0.00204
GRWD1_Q9BQ67_11_TCETGEPMEAESGDTSSEGPAQVYLPGR (UniProt Q9BQ67)	-0.0106	-0.148
HAUS6_Q7Z4H7_443_QHNQENGCR (UniProt Q7Z4H7)	-0.295	-0.152
GTF3C1_Q12789_1977_ERDCESVCFIGRPWR (UniProt Q12789)	-0.0113	-0.287
GTF3C1_Q12789_136_CTMVEAFDR (UniProt Q12789)	0.0593	-0.0506
GSDMD_P57764_38_VVQELDHGGEFIPVTSLQSSTGFQPYCLVVR (UniProt P57764)	0.0178	-0.201

Look-ups from the results shown:
GTF3C5_Q9Y5Q8_242_RVCTNPVDR (UniProt Q9Y5Q8) | probe-labelled cysteine peptide fold change (50 µM): 0.00204
GSKIP_Q9P0R6_59_CADDVAYINVETK (UniProt Q9P0R6) | probe-labelled cysteine peptide fold change (10 µM): 0.169
